Data as given in PubChem BioAssay AID1259308 (NCATS, 2017).
Here is an unselected part of about 59,000 reagents tested. In the full data, about 1,510 (2.6%) got an active call. 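Calls use total luciferase alone and ignore viability, so some active siRNAs may act by altering cell number.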 Reagents against one gene are numbered here. Further read-outs or replicates are left out here. Reagent sequences are not shown.

Screen: 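Knock-downs that increase output of a recombinant reporter protein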 (primary screen)
Cell system: human HEK293 embryonic kidney cells stably expressing firefly luciferase (HEK-CMV-Luc2-Hygro)
Reagent: single siRNA against human genes, 0.8 pmol siRNA per well
Timing: 72 h
Measured: 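Luciferase light (ONE-Glo) measured on one replicate plate set and viability (CellTiter-Glo) on the other, scaled to a negative control siRNA, with robust z-scores and luciferase per cell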
Reading the numbers: total luciferase, z-score and total luciferase, % of control: higher = more reporter protein produced; luciferase per cell, z-score: higher = more reporter output per viable cell
Rule for the call: 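Active when the median/MAD z-score for overall luciferase is greater than 3; a gene was taken forward for validation with new siRNAs if at least two of its three siRNAs passed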
Calls: active = raised luciferase; inactive = no rise

gene,reagent,"total luciferase, z-score","total luciferase, % of control","luciferase per cell, z-score",Call
STAT4,1,0.725,96.3,0.593,inactive
STAT4,2,-0.647,69,-1.61,inactive
STAT4,3,-0.275,76.4,-0.752,inactive
EPS8L1,1,3.08,143,2.19,active
EPS8L1,2,0.805,97.9,0.19,inactive
EPS8L1,3,-0.723,67.5,-1.25,inactive
GRIK2,1,-0.23,77.3,-0.89,inactive
GRIK2,2,0.629,94.4,1,inactive
GRIK2,3,2.19,125,1.4,inactive
PTPN7,1,0.688,95.6,0.778,inactive
PTPN7,2,1.01,102,0.946,inactive
PTPN7,3,-0.644,69.1,-1.2,inactive
POPDC1,1,0.896,99.7,1.04,inactive
POPDC1,2,0.269,87.2,-0.148,inactive
POPDC1,3,0.938,101,0.979,inactive
NAA40,1,-0.296,76,0.453,inactive
NAA40,2,0.425,90.3,0.475,inactive
NAA40,3,0.667,95.2,1.54,inactive
CASP16P,1,-0.565,70.6,-1.31,inactive
CASP16P,2,0.44,90.6,0.66,inactive
CASP16P,3,-0.495,72,-0.873,inactive
PSCA,1,1.72,116,0.924,inactive
PSCA,2,0.24,86.7,1.19,inactive
PSCA,3,0.473,91.3,0.429,inactive
LINC02604,1,0.368,89.2,-0.274,inactive
LINC02604,2,0.00938,82.1,-0.31,inactive
LINC02604,3,-1.51,51.8,-1.13,inactive
TTC8,1,0.157,85,0.385,inactive
TTC8,2,1.51,112,2.1,inactive
TTC8,3,-0.136,79.2,-0.0509,inactive
PLIN4,1,0.257,87,0.428,inactive
PLIN4,2,1.24,107,1.62,inactive
PLIN4,3,-0.161,78.7,0.159,inactive
SPATA17,1,0.183,85.5,0.194,inactive
SPATA17,2,0.11,84.1,1.07,inactive
SPATA17,3,1.44,110,1.87,inactive
PPBP,1,0.354,88.9,0.246,inactive
PPBP,2,0.385,89.5,0.777,inactive
PPBP,3,1.88,119,1.49,inactive
AICDA,1,1.92,120,0.896,inactive
AICDA,2,0.144,84.8,0.0157,inactive
AICDA,3,-1.28,56.5,-1.86,inactive
DEFB135,1,0.86,99,2.47,inactive
DEFB135,2,1.25,107,1.47,inactive
DEFB135,3,-0.279,76.3,-0.378,inactive
PDK3,1,-1.21,57.7,-0.433,inactive
PDK3,2,0.75,96.8,0.492,inactive
PDK3,3,-0.192,78.1,-0.857,inactive
WDR4,1,-0.0446,81,-0.974,inactive
WDR4,2,0.784,97.5,0.603,inactive
WDR4,3,3.99,161,2.11,active
C1QL3,1,2.76,137,1.75,inactive
C1QL3,2,-1.31,55.8,-0.47,inactive
C1QL3,3,-0.397,74,-0.833,inactive
ALG11,1,-0.785,66.3,-1.4,inactive
ALG11,2,-0.67,68.6,-1.02,inactive
ALG11,3,-0.179,78.3,0.396,inactive
ANKRD24,1,0.335,88.6,0.392,inactive
ANKRD24,2,-2.47,32.7,-3.3,inactive
ANKRD24,3,-0.279,76.3,-0.483,inactive
PPP2R2B,1,0.191,85.7,2.85,inactive
PPP2R2B,2,1.14,105,0.795,inactive
PPP2R2B,3,-0.569,70.6,-0.64,inactive
LHPP,1,-0.51,71.7,0.649,inactive
LHPP,2,-0.64,69.2,-0.952,inactive
LHPP,3,-0.0625,80.6,0.284,inactive
TREML4,1,1.23,106,0.546,inactive
TREML4,2,0.881,99.4,1.08,inactive
TREML4,3,-0.202,77.9,0.342,inactive
ZC3H10,1,0.312,88.1,0.139,inactive
ZC3H10,2,0.236,86.6,0.371,inactive
ZC3H10,3,-0.62,69.5,-0.393,inactive
TRANK1,1,0.324,88.3,-0.496,inactive
TRANK1,2,-1.04,61.3,-1.07,inactive
TRANK1,3,1.11,104,0.468,inactive
